Experimental data published in publication PMC11995063.
These are yes or no findings as the source states them, for the method shown. In cells and extracts the contact can be indirect. Some binding calls cover weakened binding; strength is not graded here.

Amino acid sequences for entries named in this document (tags omitted).
UniProt Q7Z6E9: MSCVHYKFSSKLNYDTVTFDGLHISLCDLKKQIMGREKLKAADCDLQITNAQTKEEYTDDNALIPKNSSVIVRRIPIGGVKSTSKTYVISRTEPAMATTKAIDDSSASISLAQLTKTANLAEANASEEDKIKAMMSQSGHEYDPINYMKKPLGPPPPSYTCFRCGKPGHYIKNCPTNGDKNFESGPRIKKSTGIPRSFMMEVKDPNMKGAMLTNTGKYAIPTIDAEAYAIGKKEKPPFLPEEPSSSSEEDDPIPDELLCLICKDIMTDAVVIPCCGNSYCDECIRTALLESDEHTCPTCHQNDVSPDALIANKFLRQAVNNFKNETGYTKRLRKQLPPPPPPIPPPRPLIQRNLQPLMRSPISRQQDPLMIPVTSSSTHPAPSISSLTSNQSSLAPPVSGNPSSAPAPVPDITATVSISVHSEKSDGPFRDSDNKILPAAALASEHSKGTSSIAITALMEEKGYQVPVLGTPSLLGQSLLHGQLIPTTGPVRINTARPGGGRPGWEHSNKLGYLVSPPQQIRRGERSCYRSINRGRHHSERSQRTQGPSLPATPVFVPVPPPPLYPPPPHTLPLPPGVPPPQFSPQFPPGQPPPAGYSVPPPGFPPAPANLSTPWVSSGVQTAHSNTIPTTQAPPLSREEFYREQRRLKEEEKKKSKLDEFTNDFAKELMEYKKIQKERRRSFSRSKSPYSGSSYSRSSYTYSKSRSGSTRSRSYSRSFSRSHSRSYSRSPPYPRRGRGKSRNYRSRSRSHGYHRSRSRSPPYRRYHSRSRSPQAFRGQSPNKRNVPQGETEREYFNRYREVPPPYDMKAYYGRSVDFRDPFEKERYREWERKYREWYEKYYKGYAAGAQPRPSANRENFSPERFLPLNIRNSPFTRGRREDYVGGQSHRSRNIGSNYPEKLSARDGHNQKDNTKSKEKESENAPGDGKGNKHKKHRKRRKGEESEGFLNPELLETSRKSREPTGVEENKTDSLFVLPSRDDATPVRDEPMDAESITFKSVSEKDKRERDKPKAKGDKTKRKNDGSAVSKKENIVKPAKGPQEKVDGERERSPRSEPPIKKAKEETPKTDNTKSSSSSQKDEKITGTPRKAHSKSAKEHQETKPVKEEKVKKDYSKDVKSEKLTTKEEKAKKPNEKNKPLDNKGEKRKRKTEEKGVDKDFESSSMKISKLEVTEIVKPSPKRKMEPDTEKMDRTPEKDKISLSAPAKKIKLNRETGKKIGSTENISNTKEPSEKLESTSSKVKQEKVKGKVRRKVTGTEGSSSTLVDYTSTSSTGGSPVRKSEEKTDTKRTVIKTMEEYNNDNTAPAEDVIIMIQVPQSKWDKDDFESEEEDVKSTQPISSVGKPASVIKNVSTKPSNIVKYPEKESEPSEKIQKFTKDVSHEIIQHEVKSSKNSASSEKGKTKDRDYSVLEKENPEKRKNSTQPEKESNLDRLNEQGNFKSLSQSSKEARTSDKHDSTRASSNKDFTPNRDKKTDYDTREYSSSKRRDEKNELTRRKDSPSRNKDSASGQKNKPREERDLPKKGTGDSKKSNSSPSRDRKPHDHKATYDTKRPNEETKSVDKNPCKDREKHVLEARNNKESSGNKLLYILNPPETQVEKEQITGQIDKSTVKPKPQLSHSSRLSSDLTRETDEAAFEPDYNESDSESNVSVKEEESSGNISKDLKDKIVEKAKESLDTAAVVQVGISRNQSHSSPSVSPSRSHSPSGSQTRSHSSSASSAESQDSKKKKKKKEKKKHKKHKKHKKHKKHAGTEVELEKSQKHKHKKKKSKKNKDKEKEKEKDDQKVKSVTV

Molecular target: T1, junction plakoglobin (UniProt P14923)
T1 sequence: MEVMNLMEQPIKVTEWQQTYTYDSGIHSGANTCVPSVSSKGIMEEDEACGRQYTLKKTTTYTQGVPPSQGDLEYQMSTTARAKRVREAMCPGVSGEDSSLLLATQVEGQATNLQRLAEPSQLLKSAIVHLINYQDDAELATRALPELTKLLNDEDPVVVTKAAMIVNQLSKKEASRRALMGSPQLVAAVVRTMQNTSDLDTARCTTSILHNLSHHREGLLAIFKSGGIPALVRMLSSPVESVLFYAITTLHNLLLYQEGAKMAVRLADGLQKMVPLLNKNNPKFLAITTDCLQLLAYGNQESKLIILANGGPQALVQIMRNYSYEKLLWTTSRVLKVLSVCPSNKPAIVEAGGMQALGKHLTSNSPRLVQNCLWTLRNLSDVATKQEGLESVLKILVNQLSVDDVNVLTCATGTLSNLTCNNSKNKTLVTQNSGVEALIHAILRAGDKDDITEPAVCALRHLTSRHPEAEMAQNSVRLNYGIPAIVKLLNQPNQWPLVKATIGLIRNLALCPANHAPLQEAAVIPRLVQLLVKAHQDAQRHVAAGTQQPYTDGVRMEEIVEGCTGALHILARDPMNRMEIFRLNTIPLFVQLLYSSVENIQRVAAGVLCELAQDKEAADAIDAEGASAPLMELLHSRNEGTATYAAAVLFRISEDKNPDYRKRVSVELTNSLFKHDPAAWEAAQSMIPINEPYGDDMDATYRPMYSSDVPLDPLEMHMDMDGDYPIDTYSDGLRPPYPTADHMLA
Assay: co-IP; cells not given; also done after knockdown of circSSU72 (binding reduced)

binding: binds
Substance: retinoblastoma-binding protein 6 (from UniProt Q7Z6E9 1-1792)
